Assay [1] concerns the target chick Hairy1 protein, whole (two-hybrid fusion) (chick (Gallus gallus)) (UniProt O57337). The assay is described as follows: two-hybrid; quantification of reporter beta-galactosidase activity in liquid culture, normalised to the Hairy1/Hairy1 interaction.
Assay [2] has the same target. Briefly: two-hybrid; confirmation by mating: baits (Gal4 DNA-BD, pGBKT7) in Y187, preys (Gal4 AD, pGADT7) in AH109; growth of 20-fold serial dilutions on SD-Leu/-Trp/-His/-Ade/X-alpha-gal medium.

These are yes or no findings as the source states them, for the method shown. Some binding calls cover weakened binding; strength is not graded here. Tags and fused reporters may be left off the sequences shown.

B1: chick Hairy1 protein, whole (two-hybrid fusion) (protein, UniProt O57337 1-290)
chain: MPADTGMEKPTASPIAGAPASASHTPDKPRSASEHRKSSKPIMEKRRRARINESLGQLKMLILDALKKDSSRHSKLEKADILEMTVKHLRNLQRAQMAAALSADPSVLGKYRAGFNECMNEVTRFLSTCEGVNADVRARLLGHLSACLGQIVAMNYLPPPPAGQPAHLAQPLHVQLPPTTTGAVPVPCKLEPTEALSPKVYGGFQLVPATDGQFAFLIPNPAFPPGSGPVIPLYANANVPVSTAWRSSERVHPPAGIPGAGLDIIWARVVPASQAGSPIAERREAVWRPW
Turning to B1, the binding result in assay [1] and in assay [2] was “binds” each time.
